Patent publication US20190367620A1
Changes are numbered by the printed parent chain. No constants are given. Whether binding was seen depends on the method and setting. Some results given as binding are weak or reduced against the parent protein; the word gives no strength.

Amino acid sequences for entries named in this document (tags omitted). A change or cut given only in a name is not applied to a line headed by its entry. Residues count along the entry.
UniProt P11362: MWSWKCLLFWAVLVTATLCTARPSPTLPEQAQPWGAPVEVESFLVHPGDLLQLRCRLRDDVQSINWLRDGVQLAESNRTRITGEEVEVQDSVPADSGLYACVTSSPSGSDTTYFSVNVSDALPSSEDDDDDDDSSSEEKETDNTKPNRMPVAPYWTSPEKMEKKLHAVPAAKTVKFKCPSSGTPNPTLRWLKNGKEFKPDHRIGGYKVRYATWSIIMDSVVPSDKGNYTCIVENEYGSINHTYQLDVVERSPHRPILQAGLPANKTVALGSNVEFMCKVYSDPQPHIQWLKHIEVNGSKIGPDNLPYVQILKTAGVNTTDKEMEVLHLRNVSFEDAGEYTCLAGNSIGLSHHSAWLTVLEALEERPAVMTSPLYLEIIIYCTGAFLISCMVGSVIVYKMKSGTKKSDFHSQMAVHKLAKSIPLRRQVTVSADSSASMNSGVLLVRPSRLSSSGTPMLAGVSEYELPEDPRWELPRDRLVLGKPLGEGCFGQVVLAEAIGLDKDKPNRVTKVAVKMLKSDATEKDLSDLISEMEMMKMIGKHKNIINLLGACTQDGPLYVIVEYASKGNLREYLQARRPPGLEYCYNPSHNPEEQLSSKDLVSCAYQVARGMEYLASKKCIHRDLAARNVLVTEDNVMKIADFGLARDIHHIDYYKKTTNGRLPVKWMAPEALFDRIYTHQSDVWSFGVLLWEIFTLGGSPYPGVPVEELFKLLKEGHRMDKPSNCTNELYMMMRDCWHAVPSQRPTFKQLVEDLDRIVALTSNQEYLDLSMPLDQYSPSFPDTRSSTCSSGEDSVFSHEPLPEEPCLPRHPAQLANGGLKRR
UniProt P16092, residues 22-376: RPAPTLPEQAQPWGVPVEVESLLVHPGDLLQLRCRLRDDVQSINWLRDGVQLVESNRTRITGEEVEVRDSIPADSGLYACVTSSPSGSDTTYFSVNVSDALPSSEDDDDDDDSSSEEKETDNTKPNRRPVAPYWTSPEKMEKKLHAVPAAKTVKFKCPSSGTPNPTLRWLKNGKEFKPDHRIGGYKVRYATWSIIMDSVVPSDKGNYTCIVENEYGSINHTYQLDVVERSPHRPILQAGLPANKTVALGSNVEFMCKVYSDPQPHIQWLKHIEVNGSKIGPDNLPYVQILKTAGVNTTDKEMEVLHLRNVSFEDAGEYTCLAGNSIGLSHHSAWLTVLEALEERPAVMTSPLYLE

Experiments:
[1] = molecular target: Human FGFR1 D2-His6 (human) (UniProt P11362); assay: ELISA, antibody titrated on FGFR1 Ig-D2, O.D. 450 nm [panel FGFR1 Ig-D2]
[2] = molecular target: human FGFR1b-IIIb extracellular domain with a HIS tag (human); assay: SPR
[3] = molecular target: human FGFR1b-IIIc extracellular domain with a HIS tag (human) (UniProt P11362); assay: SPR
[4] = molecular target: human FGFR1b-IIIb extracellular domain with a HIS tag (human); assay: selectivity column of Table 2
[5] = molecular target: human FGFR1b-IIIc extracellular domain with a HIS tag (human) (UniProt P11362); assay: selectivity column of Table 2
[6] = molecular target: Human FGFR1 D2-His6 (human) (UniProt P11362); assay: selectivity column of Table 2
[7] = molecular target: human FGFR1b-IIIc extracellular domain with a HIS tag (human) (UniProt P11362); assay: ELISA, antibody titrated on huFGFR1b-IIIc, O.D. 450 nm [panel huFGFR1b-IIIc]
[8] = molecular target: Human FGFR1 D2-His6 (human) (UniProt P11362); assay: ELISA, confirmed by SPR
[9] = molecular target: human FGFR1b-IIIb extracellular domain with a HIS tag (human); assay: ELISA, antibody titrated on huFGFR1b-IIIb, O.D. 450 nm [panel huFGFR1b-IIIb]
muFGFR1a-IIIc (mouse) = muFGFR1a-IIIc (mouse) (UniProt P16092); assay: ELISA
[10] = molecular target: human FGFR1b-IIIb extracellular domain with a HIS tag (human); assay: ELISA
[11] = molecular target: human FGFR1b-IIIc extracellular domain with a HIS tag (human) (UniProt P11362); assay: ELISA
[12] = molecular target: Human FGFR1 D2-His6 (human) (UniProt P11362); assay: ELISA
[13] = molecular target: human FGFR1b-IIIb extracellular domain with a HIS tag (human); assay: ELISA, EC50 from OD450 curves, IgG1 format
[14] = molecular target: human FGFR1b-IIIc extracellular domain with a HIS tag (human) (UniProt P11362); assay: ELISA, EC50 from OD450 curves, IgG1 format
[15] = molecular target: human FGFR1b-IIIb extracellular domain with a HIS tag (human); assay: SPR (BIAcore), IgG format
[16] = molecular target: human FGFR1b-IIIb extracellular domain with a HIS tag (human); assay: ELISA, IgG1 format
[17] = molecular target: human FGFR1b-IIIc extracellular domain with a HIS tag (human) (UniProt P11362); assay: ELISA, IgG1 format

Measured: binding

B1: mAb #A08 (antibody, V domains shown)
VH: EVQLQESGPGLVKPSGTLSLTCAVSGGSISSNNWWSWVRQPPGKGLEWIGEIYHSGSTSYNPSLKSRVTISVDKSKNQFSLKLNSVTAADTAVYYCARGTDWFDPWGQGTLVTVSS
VL: QAVLTQPPSVSVAPGQTARITCGGNNIGSESVHWYQQKPGQAPVLVVYDDSDRPSGIPERFSGSNSGNTATLTISRVEAGDEADYYCQVWDSTSDHRVFGGGTKLTVL
not listed: [13] | [14] | [15] | [16] | [17]
binds: all other assays above

B2: #D02 IgG (antibody, V domains shown)
VH: B1 VH with E1Q, N84S, F103I, P105T
VL: SYVLTQPPSVSVAPGQTARITCGGNNIGSESVHWYQQKPGQAPVLVVYDDSDRPSGIPERFSGSNSGNTATLTISRVEAGDEADYYCQVWDSTSDHRVFGGGTKLTVLG
binds: [13] | [14] | [15]

B3: mAb #D01 IgG1 (antibody, V domains shown)
VH: B1 VH with E1Q, N84S, G99A, P105H
VL: B2 VL
binds: [13] | [14]

B4: #G04 IgG (antibody, V domains shown)
VH: B1 VH with E1Q, N84S, F103Y, P105L
VL: B2 VL
binds: [13] | [14] | [15]

B5: #B10 IgG1 (antibody, V domains shown)
VH: B1 VH with E1Q, N84S, G99A, F103Y
VL: B2 VL
binds: [13] | [14] | [16] | [17]

B6: #A07 IgG1 (antibody, V domains shown)
VH: B1 VH with E1Q, N84S, F103Y
VL: B2 VL
binds: [13] | [14] | [16] | [17]
